For four substances, binding results are on record in paper PMC12266122.

Amino acid sequences for entries named in this document (tags omitted). A change or cut given only in a name is not applied to a line headed by its entry. Residues count along the entry.
isolated CCTL1 domain of WNK1 (EGFP-WNK1 450-600) (Q9H4A3, residues 450-600): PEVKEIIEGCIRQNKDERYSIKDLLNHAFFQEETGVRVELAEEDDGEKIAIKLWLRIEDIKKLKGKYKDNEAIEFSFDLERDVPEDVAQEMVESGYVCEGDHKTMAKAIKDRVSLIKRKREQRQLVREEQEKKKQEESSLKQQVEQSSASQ
isolated CCTL2 domain of WNK1 (EGFP-WNK1 1056-1217) (Q9H4A3, residues 1056-1217): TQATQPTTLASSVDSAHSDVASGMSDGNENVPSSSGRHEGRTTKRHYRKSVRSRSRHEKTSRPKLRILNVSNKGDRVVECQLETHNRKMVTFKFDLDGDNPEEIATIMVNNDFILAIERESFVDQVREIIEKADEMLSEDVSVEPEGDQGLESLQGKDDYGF
UniProt O75157: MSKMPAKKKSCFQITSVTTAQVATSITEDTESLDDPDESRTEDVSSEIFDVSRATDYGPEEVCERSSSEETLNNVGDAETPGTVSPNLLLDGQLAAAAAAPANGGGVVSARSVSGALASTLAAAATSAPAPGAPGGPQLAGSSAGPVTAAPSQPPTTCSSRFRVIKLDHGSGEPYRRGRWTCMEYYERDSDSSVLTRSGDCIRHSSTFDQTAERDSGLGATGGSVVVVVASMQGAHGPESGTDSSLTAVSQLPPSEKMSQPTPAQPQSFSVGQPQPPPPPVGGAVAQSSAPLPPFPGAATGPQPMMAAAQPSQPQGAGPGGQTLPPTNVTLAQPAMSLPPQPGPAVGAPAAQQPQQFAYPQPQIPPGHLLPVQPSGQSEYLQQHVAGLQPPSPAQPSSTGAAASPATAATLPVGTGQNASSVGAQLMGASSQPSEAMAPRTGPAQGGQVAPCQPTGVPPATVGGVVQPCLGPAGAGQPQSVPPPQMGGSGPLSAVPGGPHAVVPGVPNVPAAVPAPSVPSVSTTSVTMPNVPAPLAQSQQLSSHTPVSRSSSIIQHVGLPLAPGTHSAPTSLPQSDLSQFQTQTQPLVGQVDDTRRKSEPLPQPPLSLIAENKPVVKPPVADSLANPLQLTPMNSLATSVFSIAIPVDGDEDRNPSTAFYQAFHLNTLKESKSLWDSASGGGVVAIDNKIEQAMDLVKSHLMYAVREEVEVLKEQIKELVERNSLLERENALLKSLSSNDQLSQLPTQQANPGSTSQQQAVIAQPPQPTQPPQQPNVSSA
UniProt Q9Y3Q8: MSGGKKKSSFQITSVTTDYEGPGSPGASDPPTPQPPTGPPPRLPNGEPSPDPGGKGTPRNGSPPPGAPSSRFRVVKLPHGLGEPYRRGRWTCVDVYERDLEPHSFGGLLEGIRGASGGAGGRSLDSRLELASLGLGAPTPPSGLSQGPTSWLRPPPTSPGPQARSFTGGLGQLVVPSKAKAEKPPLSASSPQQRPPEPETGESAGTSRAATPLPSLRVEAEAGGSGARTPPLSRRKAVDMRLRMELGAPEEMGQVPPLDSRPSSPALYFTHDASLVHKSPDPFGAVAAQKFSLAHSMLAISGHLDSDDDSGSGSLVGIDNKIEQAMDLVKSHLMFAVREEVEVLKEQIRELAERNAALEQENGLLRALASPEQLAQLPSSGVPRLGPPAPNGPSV

In test [1] the target is isolated CCTL2 domain of WNK1 (EGFP-WNK1 1056-1217) (human) (UniProt Q9H4A3). Briefly: co-IP; isolated CCTL1 or CCTL2 domain of WNK1 co-expressed with full-length TSC22D2 or TSC22D4, wild type or RΦ-motif mutants (fig. S8, E and F).
Test [2] addresses isolated CCTL1 domain of WNK1 (EGFP-WNK1 450-600) (human) (UniProt Q9H4A3). The test is described as above.

Results are given in words; binding and its absence hold for the method and conditions named. In cells and extracts the contact can be indirect. A result given as binding can be weak or reduced; the word gives no strength.

Take “full-length TSC22D2 with the RΦ-motif-A mutation (from UniProt O75157)”: the binding result in test [1] is given as “binds”. As for “full-length TSC22D2 with the RΦ-motif-B mutation (from UniProt O75157)”, the binding result in test [2] and in test [1] was “binds” each time.

“full-length TSC22D4 with the RΦ-motif-A mutation (Flag TSC22D4 R71A F72A) (from UniProt Q9Y3Q8)”: the binding entry in test [1] is listed as “binds”.

As to “full-length TSC22D4 with the RΦ-motif-B mutation (Flag TSC22D4 R89A) (from UniProt Q9Y3Q8)”, the binding result in test [2] and in test [1] was “binds” in each case.
